Test results as given in patent US20180320217A1, “METHODS FOR SAMPLING AND MEASURING ORAL LAVAGE PROTEINS” (The Procter & Gamble Company, priority 2017, published 2018).

Test system: proteins in oral lavage
Assay: Abundance of proteins in human oral lavage (SomaLogic), TABLE 1
Format: in vivo
Conditions: for Means (Original Scale) High bleeder BL / Means (Original Scale) High bleeder W4 / Means (Original Scale) Low bleeder BL: abundance in oral lavage; for Means (Original Scale) High bleeder BL: high bleeders (gingivitis); for Means (Original Scale) High bleeder BL / Means (Original Scale) Low bleeder BL: baseline; for Means (Original Scale) High bleeder W4 / Fold Change High bleeder W4 vs High bleeder BL: high bleeders; for Means (Original Scale) High bleeder W4: week 4 of investigative products; for Means (Original Scale) Low bleeder BL: low bleeders (healthy); for Fold Change High bleeder BL vs Low bleeder BL / Fold Change High bleeder W4 vs High bleeder BL: oral lavage; for Fold Change High bleeder BL vs Low bleeder BL: high bleeders vs low bleeders at baseline; for Fold Change High bleeder W4 vs High bleeder BL: week 4 of investigative products vs baseline

Row | Molecule | Means (Original Scale) High bleeder BL | Means (Original Scale) High bleeder W4 | Means (Original Scale) Low bleeder BL | Fold Change High bleeder BL vs Low bleeder BL | Fold Change High bleeder W4 vs High bleeder BL
1 | Interleukin-3 receptor subunit alpha (protein, UniProt P26951 19-378, looked up) Interleukin-3 receptor …: TKEDPNPPITNLRMKAKAQQLTWDLNRNVTDIECVKDADYSMPAVNNSYCQFGAISLCEVTNYTVRVANPPFSTWILFPENSGKPWAGAENLTCWIHDVDFLSCSWAVGPGAPADVQYDLYLNVANRRQQYECLHYKTDAQGTRIGCRFDDISRLSSGSQSSHILVRGRSAAFGIPCTDKFVVFSQIEILTPPNMTAKCNKTHSFMHWKMRSHFNRKFRYELQIQKRMQPVITEQVRDRTSFQLLNPGTYTVQIRARERVYEFLSAWSTPQRFECDQEEGANTRAWRTSLLIALGTLLALVCVFVICRRYLVMQRLFPRIPHMKDPIGDSFQNDKLVVWEAGKAGLEECLVTEVQVVQKT | 190 | 120 | 89 | 2.03 | 0.66
2 | Kunitz-type protease inhibitor 2 (protein, UniProt O43291 28-252, looked up) Kunitz-type protease …: ADRERSIHDFCLVSKVVGRCRASMPRWWYNVTDGSCQLFVYGGCDGNSNNYLTKEECLKKCATVTENATGDLATSRNAADSSVPSAPRRQDSEDHSSDMFNYEEYCTANAVTGPCRASFPRWYFDVERNSCNNFIYGGCRGNKNSYRSEEACMLRCFRQQENPPLPLGSKVVVLAGLFVMVLILFLGASMVYLIRVARRNQERALRTVWSSGDDKEQLVKNTYVL | 414 | 303 | 304 | 1.32 | 0.76
3 | Kunitz-type protease inhibitor 1 (protein, UniProt O43278 36-529, looked up) Kunitz-type protease …: GPPPAPPGLPAGADCLNSFTAGVPGFVLDTNASVSNGATFLESPTVRRGWDCVRACCTTQNCNLALVELQPDRGEDAIAACFLINCLYEQNFVCKFAPREGFINYLTREVYRSYRQLRTQGFGGSGIPKAWAGIDLKVQPQEPLVLKDVENTDWRLLRGDTDVRVERKDPNQVELWGLKEGTYLFQLTVTSSDHPEDTANVTVTVLSTKQTEDYCLASNKVGRCRGSFPRWYYDPTEQICKSFVYGGCLGNKNNYLREEECILACRGVQGGPLRGSSGAQATFPQGPSMERRHPVCSGTCQPTQFRCSNGCCIDSFLECDDTPNCPDASDEAACEKYTSGFDELQRIHFPSDKGHCVDLPDTGLCKESIPRWYYNPFSEHCARFTYGGCYGNKNNFEEEQQCLESCRGISKKDVFGLRREIPIPSTGSVEMAVAVFLVICIVVVVAILGYCFFKNQRKDFHGHHHHPPPTPASSTVSTTEDTEHLVYNHTTRPL | 4290 | 2333 | 2020 | 2.09 | 0.55
4 | Kininogen-1 (protein, UniProt P01042 19-644, looked up) Kininogen-1: QESQSEEIDCNDKDLFKAVDAALKKYNSQNQSNNQFVLYRITEATKTVGSDTFYSFKYEIKEGDCPVQSGKTWQDCEYKDAAKAATGECTATVGKRSSTKFSVATQTCQITPAEGPVVTAQYDCLGCVHPISTQSPDLEPILRHGIQYFNNNTQHSSLFMLNEVKRAQRQVVAGLNFRITYSIVQTNCSKENFLFLTPDCKSLWNGDTGECTDNAYIDIQLRIASFSQNCDIYPGKDFVQPPTKICVGCPRDIPTNSPELEETLTHTITKLNAENNATFYFKIDNVKKARVQVVAGKKYFIDFVARETTCSKESNEELTESCETKKLGQSLDCNAEVYVVPWEKKIYPTVNCQPLGMISLMKRPPGFSPFRSSRIGEIKEETTVSPPHTSMAPAQDEERDSGKEQGHTRRHDWGHEKQRKHNLGHGHKHERDQGHGHQRGHGLGHGHEQQHGLGHGHKFKLDDDLEHQGGHVLDHGHKHKHGHGHGKHKNKGKKNGKHNGWKTEHLASSSEDSTTPSAQTQEKTEGPTPIPSLAKPGVTVTFSDFQDSDLIATMMPPISPAPIQSDDDWIPDIQIDPNGLSFNPISDFPDTTSPKCPGRPWKSVSEINPTTQMKESYYFDLTDGLS | 95635 | 35597 | 13797 | 8.91 | 0.52
5 | Kallikrein-8 (protein, UniProt O60259 33-260, looked up) Kallikrein-8: VLGGHECQPHSQPWQAALFQGQQLLCGGVLVGGNWVLTAAHCKKPKYTVRLGDHSLQNKDGPEQEIPVVQSIPHPCYNSSDVEDHNHDLMLLQLRDQASLGSKVKPISLADHCTQPGQKCTVSGWGTVTSPRENFPDTLNCAEVKIFPQKKCEDAYPGQITDGMVCAGSSKGADTCQGDSGGPLVCDGALQGITSWGSDPCGRSDKPGVYTNICRYLDWIKKIIGSKG | 33249 | 19220 | 15860 | 1.84 | 0.67
6 | Adenylosuccinate lyase (protein, UniProt P30566 2-484, looked up) Adenylosuccinate lyase: AAGGDHGSPDSYRSPLASRYASPEMCFVFSDRYKFRTWRQLWLWLAEAEQTLGLPITDEQIQEMKSNLENIDFKMAAEEEKRLRHDVMAHVHTFGHCCPKAAGIIHLGATSCYVGDNTDLIILRNALDLLLPKLARVISRLADFAKERASLPTLGFTHFQPAQLTTVGKRCCLWIQDLCMDLQNLKRVRDDLRFRGVKGTTGTQASFLQLFEGDDHKVEQLDKMVTEKAGFKRAFIITGQTYTRKVDIEVLSVLASLGASVHKICTDIRLLANLKEMEEPFEKQQIGSSAMPYKRNPMRSERCCSLARHLMTLVMDPLQTASVQWFERTLDDSANRRICLAEAFLTADTILNTLQNISEGLVVYPKVIERRIRQELPFMATENIIMAMVKAGGSRQDCHEKIRVLSQQAASVVKQEGGDNDLIERIQVDAYFSPIHSQLDHLLDPSSFTGRASQQVQRFLEEEVYPLLKPYESVMKVKAELCL | 1990 | 1160 | 241 | 6.74 | 0.63
7 | Interleukin-1 receptor-like 2 (protein, UniProt Q9HB29 20-575, looked up) Interleukin-1 receptor-like 2: DGCKDIFMKNEILSASQPFAFNCTFPPITSGEVSVTWYKNSSKIPVSKIIQSRIHQDETWILFLPMEWGDSGVYQCVIKGRDSCHRIHVNLTVFEKHWCDTSIGGLPNLSDEYKQILHLGKDDSLTCHLHFPKSCVLGPIKWYKDCNEIKGERFTVLETRLLVSNVSAEDRGNYACQAILTHSGKQYEVLNGITVSITERAGYGGSVPKIIYPKNHSIEVQLGTTLIVDCNVTDTKDNTNLRCWRVNNTLVDDYYDESKRIREGVETHVSFREHNLYTVNITFLEVKMEDYGLPFMCHAGVSTAYIILQLPAPDFRAYLIGGLIALVAVAVSVVYIYNIFKIDIVLWYRSAFHSTETIVDGKLYDAYVLYPKPHKESQRHAVDALVLNILPEVLERQCGYKLFIFGRDEFPGQAVANVIDENVKLCRRLIVIVVPESLGFGLLKNLSEEQIAVYSALIQDGMKVILIELEKIEDYTVMPESIQYIKQKHGAIRWHGDFTEQSQCMKTKFWKTVRYHMPPRRCRPFPPVQLLQHTPCYRTAGPELGSRRKKCTLTTG | 1304 | 898 | 506 | 2.67 | 0.67
8 | Kallikrein-12 (protein, UniProt Q9UKR0 18-248, looked up) Kallikrein-12: ATPKIFNGTECGRNSQPWQVGLFEGTSLRCGGVLIDHRWVLTAAHCSGSRYWVRLGEHSLSQLDWTEQIRHSGFSVTHPGYLGASTSHEHDLRLLRLRLPVRVTSSVQPLPLPNDCATAGTECHVSGWGITNHPRNPFPDLLQCLNLSIVSHATCHGVYPGRITSNMVCAGGVPGQDACQGDSGGPLVCGGVLQGLVSWGSVGPCGQDGIPGVYTYICKYVDWIRMIMRNN | 22605 | 9720 | 523 | 6.84 | 0.76
9 | Kallikrein-13 (protein, UniProt Q9UKR3 17-277, looked up) Kallikrein-13: GGVSQESSKVLNTNGTSGFLPGGYTCFPHSQPWQAALLVQGRLLCGGVLVHPKWVLTAAHCLKEGLKVYLGKHALGRVEAGEQVREVVHSIPHPEYRRSPTHLNHDHDIMLLELQSPVQLTGYIQTLPLSHNNRLTPGTTCRVSGWGTTTSPQVNYPKTLQCANIQLRSDEECRQVYPGKITDNMLCAGTKEGGKDSCEGDSGGPLVCNRTLYGIVSWGDFPCGQPDRPGVYTRVSRYVLWIRETIRKYETQQQKWLKGPQ | 53398 | 32056 | 16522 | 3.40 | 0.65
10 | Interleukin-6 receptor subunit beta (protein, UniProt P40189 23-918, looked up) Interleukin-6 receptor …: ELLDPCGYISPESPVVQLHSNFTAVCVLKEKCMDYFHVNANYIVWKTNHFTIPKEQYTIINRTASSVTFTDIASLNIQLTCNILTFGQLEQNVYGITIISGLPPEKPKNLSCIVNEGKKMRCEWDGGRETHLETNFTLKSEWATHKFADCKAKRDTPTSCTVDYSTVYFVNIEVWVEAENALGKVTSDHINFDPVYKVKPNPPHNLSVINSEELSSILKLTWTNPSIKSVIILKYNIQYRTKDASTWSQIPPEDTASTRSSFTVQDLKPFTEYVFRIRCMKEDGKGYWSDWSEEASGITYEDRPSKAPSFWYKIDPSHTQGYRTVQLVWKTLPPFEANGKILDYEVTLTRWKSHLQNYTVNATKLTVNLTNDRYLATLTVRNLVGKSDAAVLTIPACDFQATHPVMDLKAFPKDNMLWVEWTTPRESVKKYILEWCVLSDKAPCITDWQQEDGTVHRTYLRGNLAESKCYLITVTPVYADGPGSPESIKAYLKQAPPSKGPTVRTKKVGKNEAVLEWDQLPVDVQNGFIRNYTIFYRTIIGNETAVNVDSSHTEYTLSSLTSDTLYMVRMAAYTDEGGKDGPEFTFTTPKFAQGEIEAIVVPVCLAFLLTTLLGVLFCFNKRDLIKKHIWPNVPDPSKSHIAQWSPHTPPRHNFNSKDQMYSDGNFTDVSVVEIEANDKKPFPEDLKSLDLFKKEKINTEGHSSGIGGSSCMSSSRPSISSSDENESSQNTSSTVQYSTVVHSGYRHQVPSVQVFSRSESTQPLLDSEERPEDLQLVDHVDGGDGILPRQQYFKQNCSQHESSPDISHFERSKQVSSVNEEDFVRLKQQISDHISQSCGSGQMKMFQEVSAADAFGPGTEGQVERFETVGMEAATDEGMPKSYLPQTVRQGGYMPQ | 63627 | 40305 | 21961 | 2.76 | 0.62
